In patent US20230331840A1:
Results are given in words; binding and its absence hold for the method and conditions named. Some entries that bind do so weakly or less than the wild type.

Amino acid sequences for entries named in this document (tags omitted). A change or cut given only in a name is not applied to a line headed by its entry. Residues count along the entry.
UniProt P20273: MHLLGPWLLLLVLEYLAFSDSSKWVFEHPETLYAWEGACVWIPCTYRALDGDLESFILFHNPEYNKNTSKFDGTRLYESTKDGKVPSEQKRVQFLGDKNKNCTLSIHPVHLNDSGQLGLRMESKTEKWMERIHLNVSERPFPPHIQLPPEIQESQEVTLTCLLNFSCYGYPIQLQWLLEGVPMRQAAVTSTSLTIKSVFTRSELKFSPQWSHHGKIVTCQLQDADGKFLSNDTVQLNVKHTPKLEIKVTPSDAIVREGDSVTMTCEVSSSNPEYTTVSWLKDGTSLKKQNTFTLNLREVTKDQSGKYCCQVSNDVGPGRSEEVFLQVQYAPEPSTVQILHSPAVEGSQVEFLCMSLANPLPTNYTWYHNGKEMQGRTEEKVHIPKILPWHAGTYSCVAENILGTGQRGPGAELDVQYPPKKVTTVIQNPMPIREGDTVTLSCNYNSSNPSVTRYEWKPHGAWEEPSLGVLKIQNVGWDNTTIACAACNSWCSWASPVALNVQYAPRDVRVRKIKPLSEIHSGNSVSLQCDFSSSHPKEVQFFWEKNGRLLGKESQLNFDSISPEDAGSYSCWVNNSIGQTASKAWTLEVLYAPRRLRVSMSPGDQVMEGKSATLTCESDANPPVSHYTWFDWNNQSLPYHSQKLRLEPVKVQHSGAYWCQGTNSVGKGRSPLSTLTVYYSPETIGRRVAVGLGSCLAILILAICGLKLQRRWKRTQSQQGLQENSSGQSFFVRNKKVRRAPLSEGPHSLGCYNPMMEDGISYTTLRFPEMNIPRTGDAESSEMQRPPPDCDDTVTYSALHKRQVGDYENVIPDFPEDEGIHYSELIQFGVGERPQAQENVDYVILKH
CD22 on B cells of PBMC from volunteers: residues 20-847 of P20273
Human CD22 extracellular segment conjugated His label: residues 20-687 of P20273

Columns and labels:
[1] = target: Human CD22 extracellular segment conjugated His label (human) (UniProt P20273); experiment: ELISA, h CD22-His coated at 2 µg/ml, antibody in 3-fold dilutions
[2] = target: CD22 on B cells of PBMC from volunteers (human) (UniProt P20273); experiment: flow cytometry on PBMC from volunteers, antibody 10 µg/ml, Goat anti Mouse IgG-PE, anti-hCD19-APC counterstain

B1: CD22 antibody FC2-070 (antibody, IgG2b, V domains shown)
VH: QVQLQQPGAELVKPGTSVKLSCKASGYNFTSYWINWVKLRPGQGLEWIGDIYPGSGNTNYNEKFKSKATLTVDTSSTTAYMQLSSLASEDSALYYCARRGYLDYWGQGTTLTVSS
VL: DIQMTQSPASLSASVGETVTITCRASGNIHNYLAWYQQKQGKSPQLLVYNAKTLADGVPSRFSGSGSGTQYSLTINSLQPEDFGSYYCQHFWSTPLTFGAGTKLELKR
B1 was tested, and the binding [1] was “binds” and the binding [2] was “binds”.

B2: CD22 antibody FC2-117 (antibody, IgG1, V domains shown)
VH: DVQLQESGPGLVKPSQSLSLTCSVTGYSITSGYYWNWIRQFPGNKLEWMGYISYDGSNNYNPSLKNRISITRDTSKNQFFLKLNSVTTEDTATYYCTKGGYGYYFDYWGQGTTLTVSS
VL: DIQMTQSPASLSASVGETVTITCRASGNIHNYLAWYQQKQGKSPQLLVYNAKTLADGVPSRFSGSGSGTQYSLKINSLQPEDFGSYYCQHFWSTPPTFGGGTKLEIKR
For B2, the binding [2] was “binds”.

B3: CD22 antibody FC2-153 (antibody, IgG1, V domains shown)
VH: QVQLQQSGAELMKPGASVKISCKATGYTFSSYWIEWVKQRPGHGLEWIGEILPGSGSTNYNEKFKGKATFTADTSSNTAYMQLSSLTSEDSAVYYCARWGQLGLFYAMDYWGQGTSVTVSS
VL: DIQMTQSPASLSASVGETVTITCRASENIYSYLAWYQQKQGKSPQLLVYNAKTLAEGVPSRFSGSGSGTQFSLKINSLQPEDFGSYYCQHHYGSPLTFGAGTKLELKR
In the case of B3, the binding [1] is reported as “binds” and the binding [2] is reported as “binds”.

B4: CD22 antibody FC2-201 (antibody, IgG2b, V domains shown)
VH: KVQLQQSGAGLVKPGASVKLSCKASGYTFTDSILHWLMQRSGQGLEWIGWFYPGSGSIKYNEKFKDKATLTADKSSSTVYMELSRLTSEDSAFYFCARHEDGYDGFAYWGQGTLVTVSA
VL: ENVLTQSPAIMSASLGEKVTMSCRASSSVNYIFWYQQKSDASPKLWIYYTSNLAPGVPARFSGSGSGNSYSLTISSMEGEDAATYYCQQFTSSPFTFGSGTKLEIKR
With B4 the binding [2] was “binds”.

B5: CD22 antibody FC2-203 (antibody, IgG1, V domains shown)
VH: QVQLQQPGAELVRPGASVKLSCKASGYTFSSYWINWVKQRPGQGLEWIGNIYPSDSYTNYNQKFKDKATLTVDKSSSTAYMQLSSPTSEDSAVYYCTREGHYYGSFGAMDYWGQGTSVTVSS
VL: DVQITQSPSYLAASPGETITINCRASKTISKYLAWYQEKPGKTNKLLIYSGSTLQSGIPSRFSGSGSGTDFTLTISSLEPEDFAMYYCQQHNEYPWTFGGGTKLEIKR
With B5 the binding [1] was “binds” and the binding [2] was “binds”.
